Results deposited as PubChem BioAssay AID1508588 (Peter MacCallum Cancer Centre, 2020).
This is an unselected part of about 18,000 reagents tested. Over the whole deposit, 790 (4.4%) were called active. 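Calls rest on a combination of fold-change classes in drug and vehicle arms, not all shown here.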 A number with no mark means an inactive call.

Aim: 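Which gene losses make BRAF-mutant melanoma cells more responsive to vemurafenib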 (primary screen)
Cells: human WM266.4 melanoma cells (BRAF V600 mutant)
Reagents: siRNA pool against human genes, 40 nM
Time to read-out: 96 h from transfection to read-out
Treatment: vemurafenib 300 nM (about IC25), added 48 h after transfection, for 48 h; comparison arm got DMSO vehicle only
Measurement: 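Ratios to non-targeting siRNA for cell gain, counted as DAPI nuclei after minus before drug and averaged over two replicates, and for absorbance-read medium lactate per cell; both binned into fold-change classes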
Scale: cell gain with vemurafenib: higher = more cell gain than with non-targeting siRNA; lactate per cell with vemurafenib: higher = more lactate made per cell
Call rule: 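Enhancement is called by pairing each knock-down's vehicle-arm and drug-arm fold-change classes for viability or glycolysis; which class combinations qualify is not given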
Meaning of the calls: active = enhances vemurafenib effect; inactive = no enhancement seen

| Gene | cell gain with vemurafenib | lactate per cell with vemurafenib |
| --- | --- | --- |
| EVA1B (GeneID 55194) | 0.65 | 0.56 |
| FABP9 (GeneID 646480) | 0.05 | 1.52 |
| CDC42EP4 (GeneID 23580) | 0.09 | 2.95 |
| GRAMD4 (GeneID 23151) | 0.36 | 1.98 |
| TADA3 (GeneID 10474) | 0.25 | 1.83 |
| CIDEB (GeneID 27141) | 0 | 0 |
| TMEM132D (GeneID 121256) | 1.48 | 0.62 |
| ZNF529 (GeneID 57711) | 0.19 | 1.75 |
| STEAP1 (GeneID 26872) | 0.58 | 0.68 |
| PRP4K (GeneID 8899) | 0.17 | 0.82 |
| GJA3 (GeneID 2700) | 0.44 (active) | 0.67 |
| ANK1 (GeneID 286) | 1.01 | 0.84 |
| IVD (GeneID 3712) | 0.14 | 2.8 |
| TMEM44 (GeneID 93109) | 0.67 | 0.51 |
| FLJ46838 (retired record) (GeneID 440865) | 1.07 | 0.8 |
| HADH (GeneID 3033) | 0.74 | 1.02 |
| PLAC1 (GeneID 10761) | 0.53 | 1.73 |
| FBLN2 (GeneID 2199) | 0.27 | 1.26 |
| APIP (GeneID 51074) | 0.63 | 0.61 |
| INTU (GeneID 27152) | 0.61 | 0.7 |
| CEP135 (GeneID 9662) | 0.41 | 0.92 |
| AFDN-DT (GeneID 653483) | 1.28 | 0.8 |
| CMA1 (GeneID 1215) | 0.29 (active) | 0.3 |
| SNX29P1 (GeneID 100652781) | 0.37 | 1.06 |
| SPANXN4 (GeneID 441525) | 0.29 | 0.37 |
| STAB1 (GeneID 23166) | 0.63 | 1.38 |
| MRPS33 (GeneID 51650) | 1.35 | 1.25 |
| HACD1 (GeneID 9200) | 0.81 | 0.57 |
| ACADSB (GeneID 36) | 0.28 | 1.54 |
| HHAT (GeneID 55733) | 0.64 | 0.93 |
| NLRC4 (GeneID 58484) | 0.4 | 1.57 |
| ZBTB40 (GeneID 9923) | 0.32 | 0.6 |
| PSMD13 (GeneID 5719) | 0.12 | 2.83 |
| ARF4 (GeneID 378) | 0.62 | 1.31 |
